The list shows a part of the results.
The sequences below were run against T1, OsSMF1 (Oryza sativa, UniProt Q6ZLB0 1-436) (assay: protein-binding microarray (RPBM); PBS, 2% BSA, 51.3 ng/ul salmon testes DNA, 50 uM zinc acetate, 200 nM TF, 25 C, 1 h; high values mean tight binding). Details: protein: recombinant; tags: N-terminal polyhistidine and DsRed monomer fusion (pET32a); chain copies: 2; label: CyDye5-dUTP incorporated in the synthesized complementary strand; 3' TTTTT single-stranded linker to array surface; dsDNA, one strand shown.
T1 sequence: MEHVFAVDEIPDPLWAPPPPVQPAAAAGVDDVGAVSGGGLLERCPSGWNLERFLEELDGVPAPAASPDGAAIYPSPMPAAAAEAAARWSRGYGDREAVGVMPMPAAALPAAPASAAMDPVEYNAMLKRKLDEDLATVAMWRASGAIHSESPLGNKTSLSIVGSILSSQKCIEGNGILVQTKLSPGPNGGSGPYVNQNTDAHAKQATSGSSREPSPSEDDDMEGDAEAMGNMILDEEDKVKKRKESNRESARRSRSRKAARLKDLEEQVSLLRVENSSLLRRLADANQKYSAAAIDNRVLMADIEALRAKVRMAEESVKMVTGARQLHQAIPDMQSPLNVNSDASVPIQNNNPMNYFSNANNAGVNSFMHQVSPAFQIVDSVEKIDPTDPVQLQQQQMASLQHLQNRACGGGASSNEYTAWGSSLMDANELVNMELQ
Summary of the method: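 Transcription factors were each fused at the N-terminus to a polyhistidine tag plus DsRed and expressed in E. coli BL21-CodonPlus before Ni–NTA purification. Binding to a double-stranded custom Agilent array was carried out with 200 nM protein at 25 °C for 1 h in PBS, 2% BSA, salmon testes DNA and 50 µM zinc acetate. The binding signal is per-feature fluorescence intensity, in arbitrary units, on an Axon 4000B scanner.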

Sequence	binding signal
ATGGAGGAAGGGGCTAGAAGAATGGTACTACTGGAAGGGACGGAGTCACCTAGTGCAG	3900 fluorescence intensity (a.u.)
ACGTAGACAAGACCACGATTAAACCAGACTTTAGACCAAGCGGAGTCACCTAGTGCAG	20000 fluorescence intensity (a.u.)
CCACCCTTTTGTTTGTATATAGTCAGTGAGTATGTTCGATCGGAGTCACCTAGTGCAG	3360 fluorescence intensity (a.u.)
GAAACAGATGGATAGGCTGTTGGATCTCGATCGAATGACACGGAGTCACCTAGTGCAG	4470 fluorescence intensity (a.u.)
GCAGCCGCGGCCACGTCGGCACAAACCGAAGGCGGGAGGACGGAGTCACCTAGTGCAG	10400 fluorescence intensity (a.u.)
CGTTTGTAGGATATCCACGTGGCGCGTTGAGAGTGTTTATCGGAGTCACCTAGTGCAG	21900 fluorescence intensity (a.u.)
GCTAAGATGCCACCTCACACCAGAATTAGATTTCCCCGGGCGGAGTCACCTAGTGCAG	6770 fluorescence intensity (a.u.)
TCCGCGGCTCCGCGCTCTCCCCTCGCCGGTGTCACCGCTCCGGAGTCACCTAGTGCAG	3390 fluorescence intensity (a.u.)
GTTATTTTAATTTACTTTGGATCACCCTGATTATCGTTTCCGGAGTCACCTAGTGCAG	3280 fluorescence intensity (a.u.)
TCACAGAACTATCTTAAAGTGGTTTGGTAGTTTGTTGCACCGGAGTCACCTAGTGCAG	3240 fluorescence intensity (a.u.)
GCAATAGTTTTGTGTGGTGCAGGCTACGTGGACCCTTGCTCGGAGTCACCTAGTGCAG	7240 fluorescence intensity (a.u.)
GAAAATGCGCAATACTGTTTGGTCAGTACGTGCTATTAATCGGAGTCACCTAGTGCAG	3200 fluorescence intensity (a.u.)
TTCATCCCTTGAACTAGTTGTCAGCTACTGACCAGCCTGACGGAGTCACCTAGTGCAG	4280 fluorescence intensity (a.u.)
CTCCAATGCTACATGCCAAGTCATCCGGACTAAACGCGTCCGGAGTCACCTAGTGCAG	4980 fluorescence intensity (a.u.)
TGTGAGAGCTCACGCTAATCGGAGGGAATACGATAATGGTCGGAGTCACCTAGTGCAG	28700 fluorescence intensity (a.u.)
GGCCGGTGCGCCTGTCGATCCACGTGACGCCACCACTGGGCGGAGTCACCTAGTGCAG	7620 fluorescence intensity (a.u.)
ATCCATGCTCTTACCGTCATATTTTCCATAATTTCACTGTCGGAGTCACCTAGTGCAG	3310 fluorescence intensity (a.u.)
CCATGTAGATCTAACTTTCTATTCACTCGTGGGTTCCGGGCGGAGTCACCTAGTGCAG	3300 fluorescence intensity (a.u.)
TGTGAGCAGTGACGCGCACGCGCTGATGCCCTGCGTCTACCGGAGTCACCTAGTGCAG	5510 fluorescence intensity (a.u.)
GCCCGCTCCGCCGCGCGACACCGCGACGCCACCACCCCATCGGAGTCACCTAGTGCAG	4040 fluorescence intensity (a.u.)
ATAGATCCTCTTGCTGCTCCCTCTCTCCTGGATAAGAACCCGGAGTCACCTAGTGCAG	3810 fluorescence intensity (a.u.)
GCCGAGCCCTCCACGTCGCCCACTCGTCTCTTCCCCTTCCCGGAGTCACCTAGTGCAG	8240 fluorescence intensity (a.u.)
GGAAATACGGTGTGAGTGGAATAGACGTGTGTTTCGAAATCGGAGTCACCTAGTGCAG	3220 fluorescence intensity (a.u.)

Some of the entries so far, with each value named.
GCAATAGTTTTGTGTGGTGCAGGCTACGTGGACCCTTGCTCGGAGTCACCTAGTGCAG
  binding signal: 7240 fluorescence intensity (a.u.)
GAAAATGCGCAATACTGTTTGGTCAGTACGTGCTATTAATCGGAGTCACCTAGTGCAG
  binding signal: 3200 fluorescence intensity (a.u.)

Source: article PMC7819943, “Rice protein-binding microarrays: a tool to detect cis-acting elements near promoter regions in rice”
